Paper PMC12517348
These are yes or no findings as the source states them, for the method shown. In cells and extracts the contact can be indirect. Some binding calls cover weakened binding; strength is not graded here. Tags and fused reporters may be left off the sequences shown.

Amino acid sequences for entries named in this document (tags omitted).
UniProt P10085: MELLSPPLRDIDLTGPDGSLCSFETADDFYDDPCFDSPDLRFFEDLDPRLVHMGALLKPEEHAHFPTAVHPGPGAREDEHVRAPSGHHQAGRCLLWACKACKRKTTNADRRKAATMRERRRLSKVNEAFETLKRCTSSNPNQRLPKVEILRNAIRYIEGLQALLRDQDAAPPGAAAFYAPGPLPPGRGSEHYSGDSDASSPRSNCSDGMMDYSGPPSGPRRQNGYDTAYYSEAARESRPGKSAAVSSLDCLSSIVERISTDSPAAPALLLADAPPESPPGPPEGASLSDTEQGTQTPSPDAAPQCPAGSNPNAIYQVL

Key:
[1] = molecular target: MYOD1, Myc-tagged (MyoD-myc) (UniProt P10085); assay: co-IP; HEK293T cells overexpressing MyoD-myc, MyoG-myc and Rxrg-flag; 1 mM DSP cross-linking for 30 min before lysis; NP40 lysis buffer (150 mM NaCl, 50 mM Tris pH 7.5, 1% NP40); 1 mg protein precipitated with anti-myc antibody on protein A agarose, 4°C, 16 h; blots with anti-myc and anti-flag-HRP
[2] = molecular target: T1, MYOG, Myc-tagged (MyoG-myc) (mouse) (UniProt P12979); assay: as above
T1 sequence: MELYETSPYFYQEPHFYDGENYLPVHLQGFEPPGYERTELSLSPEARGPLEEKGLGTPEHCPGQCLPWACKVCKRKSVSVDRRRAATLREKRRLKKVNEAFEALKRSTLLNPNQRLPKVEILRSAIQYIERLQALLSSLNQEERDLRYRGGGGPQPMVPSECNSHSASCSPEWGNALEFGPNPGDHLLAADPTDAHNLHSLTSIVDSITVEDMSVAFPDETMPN

B1: RXRG, flag-tagged (Rxrg-flag) (protein, UniProt P28705 1-463)
chain: MYGNYSHFMKFPTGFGGSPGHTGSTSMSPSVALPTGKPMDSHPSYTDTPVSAPRTLSAVGTPLNALGSPYRVITSAMGPPSGALAAPPGINLVAPPSSQLNVVNSVSSSEDIKPLPGLPGIGNMNYPSTSPGSLVKHICAICGDRSSGKHYGVYSCEGCKGFFKRTIRKDLIYTCRDNKDCLIDKRQRNRCQYCRYQKCLVMGMKREAVQEERQRSRERAESEAECASSSHEDMPVERILEAELAVEPKTESYGDMNVENSTNDPVTNICHAADKQLFTLVEWAKRIPHFSDLTLEDQVILLRAGWNELLIASFSHRSVSVQDGILLATGLHVHRSSAHSAGVGSIFDRVLTELVSKMKDMQMDKSELGCLRAIVLFNPDAKGLSNPSEVETLREKVYATLEAYTKQKYPEQPGRFAKLLLRLPALRSIGLKCLEHLFFFKLIGDTPIDSFLMEMLETPLQIT
binding [1]: binds | binding [2]: binds
